Measurements reported in PubChem BioAssay AID686937 (Drosophila RNAi Screening Center, 2013).
The screen tested about 23,000 reagents; this is an unselected part of those that have a named target and a result. 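Reduced-secretion tags in replicate 1 do not always agree with the z-scores; no criterion for assigning the tags was given.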 Not all columns of the deposit are shown. Not given: the amount of reagent.

Purpose: 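Knock-downs that reduce output of a secreted reporter enzyme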 (primary screen)
Cell system: Drosophila S2 cells expressing secreted horseradish peroxidase
Reagent: long dsRNA against Drosophila genes
Time to read-out: about 5.5 days (5 days dsRNA, then 12 h reporter induction)
Challenge: reporter expression induced after 5 days of dsRNA, read 12 h later; inducer not stated
Measurement: 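After 5 days of dsRNA and 12 h of reporter induction, medium peroxidase read by chemiluminescence and scored as per-plate z-score; higher values mean more reporter released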
Reading the numbers: z-score: higher = more reporter secreted into medium

Proc (Proctolin) [DRSC03009] → z-score, replicate 1: -3.97; phenotype, replicate 1: reduced secretion
Ranbp16 [DRSC20160] → z-score, replicate 1: 0.4
lncRNA:iab8 (long non-coding RNA:iab8) [DRSC13187] → z-score, replicate 1: 0.48
lncRNA:iab8 (long non-coding RNA:iab8) [DRSC22252] → z-score, replicate 1: 0.07
pHCl-2 (pH-sensitive chloride channel 2) [DRSC14306] → z-score, replicate 1: -0.05
e(y)2 (enhancer of yellow 2) [DRSC19640] → z-score, replicate 1: 0.26
CG11257 [DRSC06068] → z-score, replicate 1: 0.22
CG7329 [DRSC03046] → z-score, replicate 1: -0.1
Reph (Regulator of eph expression) [DRSC00634] → z-score, replicate 1: 0.18
Reph (Regulator of eph expression) [DRSC22031] → z-score, replicate 1: 0.51
CG17564 [DRSC02626] → z-score, replicate 1: 2.45
Gk2 (Glycerol kinase 2) [DRSC08610] → z-score, replicate 1: 0.19

Reformatted: results already given
| Gene | amplicon | z-score, replicate 1 | phenotype, replicate 1 |
| --- | --- | --- | --- |
| CG11257 | DRSC06068 | 0.22 | – |
| CG7329 | DRSC03046 | -0.1 | – |

The results go on:
Rrp5 (Ribosomal RNA Processing 5) [DRSC15862] → z-score, replicate 1: 0
CAP [DRSC05215] → z-score, replicate 1: -0.19
CAP [DRSC06743] → z-score, replicate 1: 0.24
CAP [DRSC06744] → z-score, replicate 1: 0.16
CAP [DRSC06745] → z-score, replicate 1: 0.32
CAP [DRSC06846] → z-score, replicate 1: 0.23
CG32811 [DRSC22649] → z-score, replicate 1: 0.03
Dh44-R2 (Diuretic hormone 44 receptor 2) [DRSC06141] → z-score, replicate 1: 0.18
Dh44-R2 (Diuretic hormone 44 receptor 2) [DRSC06281] → z-score, replicate 1: 0.4
CG13674 [DRSC10033] → z-score, replicate 1: 0.44
CG1227 [DRSC12534] → z-score, replicate 1: 0.32
Grl40a (Gustatory receptor-like 40a) [DRSC03677] → z-score, replicate 1: -0.16
CG11666 [DRSC22379] → z-score, replicate 1: 0.48
Nepl21 (Neprilysin-like 21) [DRSC14133] → z-score, replicate 1: 0.5
Vsx1 (Visual system homeobox 1) [DRSC18349] → z-score, replicate 1: 0.4; phenotype, replicate 1: reduced secretion
Vsx1 (Visual system homeobox 1) [DRSC18350] → z-score, replicate 1: -2.88; phenotype, replicate 1: reduced secretion
